Construct, isoform or probe ends are uncertain for at least one entry. For some assays here: A weaker result is weaker than the reference pair of the same experiment. For some assays here: At least one verdict rests on a figure or table, not on a statement of the authors.
What was measured:
[1] = biological target: GST-E2F1 (UniProt Q01094); test: competition with a labelled probe; details: 100-fold excess vs DHFR probe, very inefficient; 1.8 ug GST-E2F1 per reaction, 24 ng/ul ds mutant adenovirus E2 E2F-site oligo as nonspecific competitor; recombinant protein
[2] = biological target: GST-E2F1 (UniProt Q01094); test: EMSA; details: positive control; 1.8 ug GST-E2F1 per reaction, 24 ng/ul ds mutant adenovirus E2 E2F-site oligo as nonspecific competitor; recombinant protein; label: 32P as probe, unlabeled as competitor

Amino acid sequences for entries named in this document (tags omitted). A change or cut given only in a name is not applied to a line headed by its entry.
UniProt Q01094: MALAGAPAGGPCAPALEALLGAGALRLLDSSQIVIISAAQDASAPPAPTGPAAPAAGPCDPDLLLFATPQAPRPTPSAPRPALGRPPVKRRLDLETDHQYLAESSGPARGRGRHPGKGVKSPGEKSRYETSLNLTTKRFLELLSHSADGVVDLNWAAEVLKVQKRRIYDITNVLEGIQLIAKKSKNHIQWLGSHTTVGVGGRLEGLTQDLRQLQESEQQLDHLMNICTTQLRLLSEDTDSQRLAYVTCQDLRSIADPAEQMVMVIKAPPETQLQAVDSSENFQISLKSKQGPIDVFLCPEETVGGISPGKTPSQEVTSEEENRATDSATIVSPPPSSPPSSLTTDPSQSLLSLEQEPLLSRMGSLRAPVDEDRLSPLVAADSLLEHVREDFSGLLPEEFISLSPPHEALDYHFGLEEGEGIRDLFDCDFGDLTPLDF

Sequence | binding result [1] | binding result [2]
CAGAAAATTCATAGCGCTGTGATTTTTAGATC (double strand) [TIMELESS E2F site] | binds more weakly | –
CTAGAGCAATTTCGCGCCAAACTTGGATC (double strand) [DHFR E2F site] | – | binds
